Results are given in words; binding and its absence hold for the method and conditions named. Some results given as binding are weak or reduced against the parent protein; the word gives no strength.
Key:
[1] = target: T1, murine BATF (murine), O35284; experiment: EMSA, 293T nuclear extracts, AICE probes (heterodimer on DNA); conditions: remark: other sources report otherwise
T1 chain: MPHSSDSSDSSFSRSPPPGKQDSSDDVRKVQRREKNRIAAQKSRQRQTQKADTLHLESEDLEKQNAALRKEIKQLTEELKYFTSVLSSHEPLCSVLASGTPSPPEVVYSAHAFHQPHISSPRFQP

murine JunB = target: T2, murine JunB (murine, UniProt P09450 1-344); experiment: as above
T2 construct: AP-1 family transcription factor, used as nuclear extract
T2 sequence (looked up): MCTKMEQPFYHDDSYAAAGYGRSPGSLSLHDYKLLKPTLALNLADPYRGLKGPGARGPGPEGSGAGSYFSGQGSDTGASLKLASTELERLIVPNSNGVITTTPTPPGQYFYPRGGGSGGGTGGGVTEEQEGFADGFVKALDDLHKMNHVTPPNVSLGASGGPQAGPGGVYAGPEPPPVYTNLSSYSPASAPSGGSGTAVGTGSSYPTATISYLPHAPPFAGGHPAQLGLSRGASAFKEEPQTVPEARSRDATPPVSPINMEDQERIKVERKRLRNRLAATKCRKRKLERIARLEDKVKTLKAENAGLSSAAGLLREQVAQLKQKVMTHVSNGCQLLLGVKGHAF

BATF/JunB heterodimer = target: T3, BATF/JunB heterodimer (murine, UniProt O35284 1-125; P09450 1-344); experiment: EMSA, 293T nuclear extracts, AICE probes
T3 construct: Formed by mixing 293T nuclear extracts, or endogenous in Th17 nuclear extracts; also called BATF/JunB complex
T3 sequence (looked up) 1: T1 chain
T3 sequence (looked up) 2: T2 sequence (looked up)
From the text: (a-d) EMSAs using the Bcl11b probe and 293T nuclear extracts as a source of indicated proteins (a) c-Jun, BATF, IRF-4, (b) FosL2, JunB, IRF-4, (c) JunB, BATF, IRF-8 or (d) JunB, BATF, IRF-3 (e) EMSA using an ISRE containing probe and IRF-3 or IRF-4. Complexes were supershifted with indicated antibodies. Red and green arrows mark the ternary and quaternary protein-DNA complexes, respectively as in FIG. 1d. Data are representative of at least two independent experiments. (f-h) Th0 cells and Th2 cells differentiated in vitro (42 hours) and LPS-activated dendritic cells (6 hours) were subjected to chromatin crosslinking and immunoprecipitation with antibodies directed against IRF-4. Immunoprecipitated chromatin was deep sequenced and analyzed as in FIG. 3a.
Nuclear extracts were prepared from 293T cells (2×107), 48 hours after their transfection or from Th17 cells (8×107), 42 hours after their activation and differentiation. […]

B1: murine c-Jun, P05627 1-334 (protein, UniProt P05627 1-334, looked up)
chain: MTAKMETTFYDDALNASFLQSESGAYGYSNPKILKQSMTLNLADPVGSLKPHLRAKNSDLLTSPDVGLLKLASPELERLIIQSSNGHITTTPTPTQFLCPKNVTDEQEGFAEGFVRALAELHSQNTLPSVTSAAQPVSGAGMVAPAVASVAGAGGGGGYSASLHSEPPVYANLSNFNPGALSSGGGAPSYGAAGLAFPSQPQQQQQPPQPPHHLPQQIPVQHPRLQALKEEPQTVPEMPGETPPLSPIDMESQERIKAERKRMRNRIAASKCRKRKLERIARLEEKVKTLKAQNSELASTANMLREQVAQLKQKVMNHVNSGCQLMLTQQLQTF
- binding [1]: binds

B2: murine FosL2 (protein, UniProt P47930 1-326, looked up)
chain: MYQDYPGNFDTSSRGSSGSPAHAESYSSGGGGQQKFRVDMPGSGSAFIPTINAITTSQDLQWMVQPTVITSMSNPYPRSHPYSPLPGLASVPGHMALPRPGVIKTIGTTVGRRRRDEQLSPEEEEKRRIRRERNKLAAAKCRNRRRELTEKLQAETEELEEEKSGLQKEIAELQKEKEKLEFMLVAHGPVCKISPEERRSPPTSGLQSLRGTGSAVGPVVVKQEPPEEDSPSSSAGMDKTQRSVIKPISIAGGGFYGEEPLHTPIVVTSTPAITPGTSNLVFTYPNVLEQESPSSPSESCSKAHRRSSSSGDQSSDSLNSPTLLAL
- binding (murine JunB): binds

B3: DBD of IRF-4 (protein)
chain: NGKLRQWLIDQIDSGKYPGLVWENEEKSVFRIPWKHAGKQDYNREEDAALFKAWALFKGKFREGIDKPDPPTWKTRLRCALNKSNDFEELVERSQLDISDPYKVYRIVPEGAKKGAKQL
- binding (BATF/JunB heterodimer): binds
